This is one part of the list. Plates or batches differ in their baseline, so values are only roughly comparable.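 Hits were defined as a z-score below −3.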 Starred links: 1 amine or outer side, 2 acyl side, 3 side chain; linkers in the order of their positions; H or OH if unused. Positions of bridges follow the written chain, without caps; N, C: chain ends. Non-standard residues stand in square brackets, D forms with d. Residues, ends and D or L forms follow the SMILES beside them. Chains are numbered I, II in the order given. Actinocin(9to1) = Cc1c2oc3c(C)ccc(C(=O)[*:1])c3nc-2c(C(=O)[*:2])c(N)c1=O; NMeV = CN[C@H](C(=O)O)C(C)C; Sar = CNCC(=O)O
Target: T1, YTHDF1 YTH domain (aa 365-554) (UniProt Q9BYJ9)
T1 sequence (whole entry): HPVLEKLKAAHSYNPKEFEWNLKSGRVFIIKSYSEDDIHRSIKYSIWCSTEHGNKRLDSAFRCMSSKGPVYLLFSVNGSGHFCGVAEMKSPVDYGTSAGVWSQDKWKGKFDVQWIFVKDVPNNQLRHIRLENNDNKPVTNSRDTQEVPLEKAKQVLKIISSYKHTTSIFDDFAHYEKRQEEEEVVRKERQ
Experiment: tryptophan fluorescence intensity z-score (mean); higher = higher fluorescence, less quenching (negative = binding / quenching)
Conditions: 10 µM

Tryptophan fluorescence intensity z-score, inactive:
Cc1cc(C(C)(C)C)c(O)c(C(C)(C)C)c1 (plate: M 13-14) 0.372
CC(=O)Nc1ccc(OCC(O)CNC(C)C)cc1 (stereo not drawn) (plate: M 13-14) 1.04
CN1[C@@H]2CC[C@H]1C[C@@H](OC(c1ccccc1)c1ccccc1)C2 (plate: M 1-2) 0.295
CCCC(=O)Nc1ccc(OCC(O)CNC(C)C)c(C(C)=O)c1 (stereo not drawn) (plate: M 5-6) 0.00314
COc1c(O)cc(O)cc1O (plate: M 15-16) 0.623
O=C(Nc1ccccc1)OCC(CN1CCCCC1)OC(=O)Nc1ccccc1 (stereo not drawn) (plate: M 11-12) 0.307
C[C@@H]1O[C@@H](O[C@H]2[C@H](Oc3cc(O)c4c(c3)O[C@H](c3ccc(O)cc3)CC4=O)O[C@H](CO)[C@@H](O)[C@@H]2O)[C@H](O)[C@H](O)[C@H]1O (plate: M 17-18) 0.196
COc1cc2c(cc1OC)Cc1cc(OC)c(OC)cc1Cc1cc(OC)c(OC)cc1C2 (plate: M 21-22) 1.49
N[C@@H](CC(=O)N1CCn2c(nnc2C(F)(F)F)C1)Cc1cc(F)c(F)cc1F (plate: M 11-12) 0.462
C#CC1(O)CC[C@H]2[C@@H]3CCC4=CC(=O)CC[C@@H]4[C@H]3CC[C@@]21CC (mixture of isomers) (plate: M 3-4) 0.0389
CC(=O)OCC(=O)[C@@]12OC3(CCCC3)O[C@@H]1C[C@H]1[C@@H]3CCC4=CC(=O)C=C[C@]4(C)[C@@]3(F)[C@@H](O)C[C@@]12C (plate: M 9-10) -0.46
COc1cc(O)c(C(=O)/C=C/c2ccc(O)c(OC)c2)c(OC)c1 (plate: M 19-20) -0.32
COc1cc(C(C)=O)cc(OC)c1O (plate: M 17-18) -0.0754
CC(C)=CCC/C(C)=C\CO (plate: M 17-18) -0.171
COCCCOc1ccnc(C[S+]([O-])c2nc3ccccc3[nH]2)c1C (stereo not drawn) (plate: M 11-12) 0.204
O=C(CCCCC(=O)Nc1c(I)cc(I)c(C(=O)O)c1I)Nc1c(I)cc(I)c(C(=O)O)c1I (plate: M 5-6) 0.305
CNCC[C@@H](Oc1ccccc1C)c1ccccc1 (plate: M 11-12) -0.623
Cc1ccc(C(=O)C(C)CN2CCCCC2)cc1 (stereo not drawn) (plate: M 23-24) 0.308
CCCCC1C(=O)N(c2ccccc2)N(c2ccccc2)C1=O (plate: M 5-6) 0.116
O=C(O)/C=C/C=C/c1ccccc1 (plate: M 17-18) -0.253
CC1=CC(=O)c2ccccc2C1=O (plate: M 7-8) 0.441
CC(=O)/N=c1/sc(S(N)(=O)=O)nn1C (plate: M 7-8) -0.377
COc1ccc(-c2cc(=O)c3c(O)c(OC)c(OC)c(OC)c3o2)cc1OC (plate: M 19-20) 0.427
N=C(N)N1CCc2ccccc2C1 (plate: M 13-14) 0.424
COCCCOc1cc(C[C@@H](C[C@H](N)[C@@H](O)C[C@H](C(=O)NCC(C)(C)C(N)=O)C(C)C)C(C)C)ccc1OC (plate: M 11-12) 0.399
CCCCOC(=O)c1ccc(O)cc1 (plate: M 13-14) 0.514
C#C[C@]1(OC(C)=O)CC[C@H]2[C@@H]3CCC4=CC(=O)CC[C@@H]4[C@H]3CC[C@@]21C (plate: M 3-4) -0.483
Cc1c2oc3c(C)ccc(C(=O)N[C@@H]4C(=O)N[C@H](C(C)C)C(=O)N5CCC[C@H]5C(=O)N(C)CC(=O)N(C)[C@@H](C(C)C)C(=O)O[C@@H]4C)c3nc-2c(C(=O)N[C@@H]2C(=O)N[C@H](C(C)C)C(=O)N3CCC[C@H]3C(=O)N(C)CC(=O)N(C)[C@@H](C(C)C)C(=O)O[C@@H]2C)c(N)c1=O (plate: M 1-2) (I: T[dV]P[Sar][NMeV] / II: T[dV]P[Sar][NMeV]; ester I:1-I:C, II:1-II:C; linker I:N-II:N via Actinocin(9to1)) -0.44
COc1ccc2c(c1)c(CC(=O)OCC(=O)O)c(C)n2C(=O)c1ccc(Cl)cc1 (plate: M 23-24) 0.0618
O=C1C(O)=C(O)C(=O)C(O)=C1O (plate: M 9-10) -0.279
COC(=O)C[C@H]1C(C)(C)C(=O)[C@@H]2CC3C4=CC(=O)O[C@@H](c5ccoc5)[C@]4(C)CC[C@@H]3[C@@]1(C)C2=O (stereo partly drawn) (plate: M 13-14) 0.583
CC(C)=CC1C(C(=O)O)C1(C)C (stereo not drawn) (plate: M 19-20) 0.704
CC(C)Cn1c(=O)n(C)c(=O)c2nc[nH]c21 (plate: M 23-24) 0.446
COc1ccc2cc3[n+](cc2c1OC)CCc1cc2c(cc1-3)OCO2 (plate: M 17-18) -0.545
COc1ccc2c(c1)OC[C@@H](Cc1ccc(OC)c(OC)c1)[C@@H]2O (plate: M 19-20) 0.806
Cc1cc(O)cc(O)c1C(=O)O (plate: M 15-16) 0.472
CC(C)(C)NCC(O)COc1cccc2c1CC(O)C(O)C2 (stereo not drawn) (plate: M 9-10) -0.271
CN(C)CC(=O)OC[C@@H](O)[C@@H](O)[C@H](O)[C@@H](O)C(=O)O (plate: M 21-22) 0.27
CC[C@H](C)C(=O)O[C@H]1C[C@H](O)C=C2C=C[C@H](C)[C@H](CC[C@@H](O)C[C@@H](O)CC(=O)O)[C@H]21 (plate: M 11-12) 0.232
CC1=C(C(=O)O)N2C(=O)[C@@H](NC(=O)[C@H](N)c3ccccc3)[C@H]2SC1 (plate: M 7-8) -0.243
CCC(C)C(=O)OC1[C@@H]2CC3=C4CC(=O)O[C@@H](c5ccoc5)[C@]4(C)CCC3[C@@](C)(C2=O)[C@@H](CC(=O)OC)C1(C)C (stereo partly drawn) (plate: M 13-14) 0.448
CC1CCC2(OC1)OC1CC3C4CCC5C[C@@H](O)CCC5(C)C4=CCC3(C)C1[C@@H]2C (stereo partly drawn) [3beta-HYDROXYISOALLOSPIROST-9(11)-ENE] (plate: M 13-14) 1.17
O=C(O)/C=C(\CC(=O)O)C(=O)O (plate: M 17-18) 0.292
Nc1nc(=O)[nH]cc1F (plate: M 13-14) 0.008
Nc1nnc(-c2cccc(Cl)c2Cl)c(N)n1 (plate: M 11-12) 0.0842
NC[C@H]1O[C@H](O[C@H]2[C@H](O)[C@@H](O[C@H]3O[C@H](CO)[C@@H](O)[C@H](N)[C@H]3O)[C@H](N)C[C@@H]2N)[C@H](N)[C@@H](O)[C@@H]1O (plate: M 5-6) 0.0191
CC(=O)O[C@]1(C(C)=O)CC[C@H]2[C@@H]3C=C(C)C4=CC(=O)CC[C@]4(C)[C@H]3CC[C@@]21C (plate: M 3-4) -0.0137
Cc1c(C)c2c(c(C)c1O)CCC(C)(CCCC(C)CCCC(C)CCCC(C)C)O2 (stereo not drawn) [alpha-TOCHOPHEROL] (plate: M 1-2) 0.443
CC(=O)/C=C\[C@@H]1[C@@]2(C)CCCC(C)(C)C2CC[C@@]1(C)O (stereo partly drawn) (plate: M 17-18) 0.535
C=C(C)[C@@H]1CC[C@]2(C)CC[C@]3(C)[C@H](CC[C@@H]4[C@@]5(C)CC[C@H](O)C(C)(C)[C@@H]5CC[C@]43C)[C@@H]12 (plate: M 21-22) 0.195
CCCCCCCCNC(C)C(O)c1ccc(SC(C)C)cc1 (stereo not drawn) (plate: M 7-8) -0.291
C[C@H]1O[C@@H](O[C@H]2[C@@H](O)C[C@H](O[C@H]3[C@@H](O)C[C@H](O[C@H]4CC[C@@]5(C)[C@H](CC[C@@H]6[C@@H]5CC[C@]5(C)[C@@H](C7=CC(=O)OC7)CC[C@]65O)C4)O[C@@H]3C)O[C@@H]2C)C[C@H](O)[C@@H]1O (plate: M 1-2) 0.0229
COc1cc2c(cc1OC)[C@@H]1C(=O)c3ccc4c(c3O[C@@H]1CO2)C=CC(C)(C)O4 (plate: M 21-22) -0.96
S=c1[nH]cnc2nc[nH]c12 (plate: M 3-4) -0.156
NCCCCN (plate: M 19-20) 0.622
CC1=CC2C(CC1=O)C(C)=CCC2C(C)C (stereo not drawn) (plate: M 17-18) 0.758
CC(C)[C@@H]1CC[C@@H](C)CC1=O (plate: M 17-18) 0.0327
CC(C)NC(=N)NC(=N)Nc1ccc(Cl)cc1 (plate: M 9-10) 0.319
C[C@]12CCC3c4ccc(OS(=O)(=O)O)cc4CCC3C1CC[C@H]2O (stereo partly drawn) (plate: M 21-22) 0.19
O=C1OC(=O)[C@H]2[C@@H]1[C@@H]1CC[C@H]2O1 (plate: M 23-24) 0.498
Cc1nnc(SCC2=C(C(=O)O)N3C(=O)[C@@H](NC(=O)Cn4cnnn4)[C@H]3SC2)s1 (plate: M 1-2) 0.702
O=c1[nH]c(=O)n([C@H]2C[C@H](O)[C@@H](CO)O2)cc1C(F)(F)F (plate: M 9-10) -0.258
COc1ccc2c3c1O[C@H]1C[C@@H](O)C=C[C@@]31CCN(C)C2 (plate: M 7-8) -0.0141

As a working copy, 5 of the compounds above:
Tryptophan fluorescence intensity z-score, inactive:
CC(=O)/N=c1/sc(S(N)(=O)=O)nn1C (plate: M 7-8) -0.377
COc1ccc(-c2cc(=O)c3c(O)c(OC)c(OC)c(OC)c3o2)cc1OC (plate: M 19-20) 0.427
N=C(N)N1CCc2ccccc2C1 (plate: M 13-14) 0.424
COCCCOc1cc(C[C@@H](C[C@H](N)[C@@H](O)C[C@H](C(=O)NCC(C)(C)C(N)=O)C(C)C)C(C)C)ccc1OC (plate: M 11-12) 0.399
CCCCOC(=O)c1ccc(O)cc1 (plate: M 13-14) 0.514
